The assay has as its target C-terminal HA-tagged Zaire ebolavirus (strain Mayinga) nucleoprotein (Zaire ebolavirus (strain Mayinga)) (UniProt P18272). In words: affinity purification with mass spectrometry.

Protein sequences, listed by entry. Tags and fused reporters are not part of them.
UniProt P18272: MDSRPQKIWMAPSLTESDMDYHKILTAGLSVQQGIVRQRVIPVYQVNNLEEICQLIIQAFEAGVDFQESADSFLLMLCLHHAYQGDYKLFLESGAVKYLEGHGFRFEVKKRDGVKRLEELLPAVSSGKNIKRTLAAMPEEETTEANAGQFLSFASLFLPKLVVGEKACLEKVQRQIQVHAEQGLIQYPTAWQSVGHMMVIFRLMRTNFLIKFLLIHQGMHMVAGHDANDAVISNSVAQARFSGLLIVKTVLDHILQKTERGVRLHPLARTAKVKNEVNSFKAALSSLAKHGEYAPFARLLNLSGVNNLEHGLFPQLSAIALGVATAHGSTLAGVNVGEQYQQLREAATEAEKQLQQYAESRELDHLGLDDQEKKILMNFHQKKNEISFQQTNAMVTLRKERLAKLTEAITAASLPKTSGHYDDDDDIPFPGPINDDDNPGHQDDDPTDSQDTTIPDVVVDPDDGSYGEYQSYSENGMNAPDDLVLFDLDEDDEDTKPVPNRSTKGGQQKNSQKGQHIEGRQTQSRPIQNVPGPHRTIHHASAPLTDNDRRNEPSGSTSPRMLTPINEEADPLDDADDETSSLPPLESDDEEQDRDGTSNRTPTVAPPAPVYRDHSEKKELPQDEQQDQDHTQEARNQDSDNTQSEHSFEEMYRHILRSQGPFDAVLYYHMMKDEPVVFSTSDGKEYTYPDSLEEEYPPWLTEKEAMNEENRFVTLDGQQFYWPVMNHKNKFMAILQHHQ
UniProt Q9BXS5: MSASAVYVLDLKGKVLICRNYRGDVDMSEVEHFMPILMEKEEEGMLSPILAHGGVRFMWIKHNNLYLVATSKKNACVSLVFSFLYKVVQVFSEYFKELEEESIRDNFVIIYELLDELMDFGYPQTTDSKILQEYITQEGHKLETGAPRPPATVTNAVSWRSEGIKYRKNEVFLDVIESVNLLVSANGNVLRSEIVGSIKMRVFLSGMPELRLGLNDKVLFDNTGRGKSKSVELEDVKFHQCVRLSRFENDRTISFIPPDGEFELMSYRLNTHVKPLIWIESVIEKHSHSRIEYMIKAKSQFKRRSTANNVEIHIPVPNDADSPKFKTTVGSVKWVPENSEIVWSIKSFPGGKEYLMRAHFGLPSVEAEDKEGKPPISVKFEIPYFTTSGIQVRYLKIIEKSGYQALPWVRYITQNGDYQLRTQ
UniProt O00571: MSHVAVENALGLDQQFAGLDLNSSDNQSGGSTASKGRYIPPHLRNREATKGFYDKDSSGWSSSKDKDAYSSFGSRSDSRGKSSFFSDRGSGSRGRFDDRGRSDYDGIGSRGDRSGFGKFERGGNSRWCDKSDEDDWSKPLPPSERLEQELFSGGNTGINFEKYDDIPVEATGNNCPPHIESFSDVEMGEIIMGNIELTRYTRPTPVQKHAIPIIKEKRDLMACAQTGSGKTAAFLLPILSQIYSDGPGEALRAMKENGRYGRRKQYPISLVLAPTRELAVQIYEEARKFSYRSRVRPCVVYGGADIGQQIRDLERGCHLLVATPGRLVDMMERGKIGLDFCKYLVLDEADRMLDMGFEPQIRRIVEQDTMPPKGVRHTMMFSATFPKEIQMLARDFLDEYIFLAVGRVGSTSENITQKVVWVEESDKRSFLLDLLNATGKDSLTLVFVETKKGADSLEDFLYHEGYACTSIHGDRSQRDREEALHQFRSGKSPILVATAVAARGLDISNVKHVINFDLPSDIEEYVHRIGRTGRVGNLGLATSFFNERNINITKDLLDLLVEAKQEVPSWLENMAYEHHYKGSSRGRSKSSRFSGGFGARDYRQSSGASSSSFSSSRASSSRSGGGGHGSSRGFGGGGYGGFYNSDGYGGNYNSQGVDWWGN
UniProt Q9NR30: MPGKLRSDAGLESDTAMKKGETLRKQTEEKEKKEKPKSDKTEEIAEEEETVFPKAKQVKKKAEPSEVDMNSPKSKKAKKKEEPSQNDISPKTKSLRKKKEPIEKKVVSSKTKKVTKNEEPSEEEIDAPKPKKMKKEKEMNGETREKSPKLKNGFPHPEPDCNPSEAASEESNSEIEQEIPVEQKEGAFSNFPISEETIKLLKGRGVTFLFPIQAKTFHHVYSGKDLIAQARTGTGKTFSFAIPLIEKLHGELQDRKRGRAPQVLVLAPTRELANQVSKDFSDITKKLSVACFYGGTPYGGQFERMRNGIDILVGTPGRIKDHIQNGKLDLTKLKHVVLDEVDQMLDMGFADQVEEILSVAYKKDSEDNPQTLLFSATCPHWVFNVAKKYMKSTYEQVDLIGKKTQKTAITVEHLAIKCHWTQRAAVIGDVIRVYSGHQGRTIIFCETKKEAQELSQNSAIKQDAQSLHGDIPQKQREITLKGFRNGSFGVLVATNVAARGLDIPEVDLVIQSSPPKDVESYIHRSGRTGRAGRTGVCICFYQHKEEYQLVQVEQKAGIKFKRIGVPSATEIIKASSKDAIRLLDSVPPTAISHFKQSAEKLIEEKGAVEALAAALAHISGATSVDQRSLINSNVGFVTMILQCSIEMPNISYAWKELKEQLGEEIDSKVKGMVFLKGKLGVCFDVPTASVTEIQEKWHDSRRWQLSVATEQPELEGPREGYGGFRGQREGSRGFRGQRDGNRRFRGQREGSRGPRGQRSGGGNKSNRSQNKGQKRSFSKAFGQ
UniProt P11940: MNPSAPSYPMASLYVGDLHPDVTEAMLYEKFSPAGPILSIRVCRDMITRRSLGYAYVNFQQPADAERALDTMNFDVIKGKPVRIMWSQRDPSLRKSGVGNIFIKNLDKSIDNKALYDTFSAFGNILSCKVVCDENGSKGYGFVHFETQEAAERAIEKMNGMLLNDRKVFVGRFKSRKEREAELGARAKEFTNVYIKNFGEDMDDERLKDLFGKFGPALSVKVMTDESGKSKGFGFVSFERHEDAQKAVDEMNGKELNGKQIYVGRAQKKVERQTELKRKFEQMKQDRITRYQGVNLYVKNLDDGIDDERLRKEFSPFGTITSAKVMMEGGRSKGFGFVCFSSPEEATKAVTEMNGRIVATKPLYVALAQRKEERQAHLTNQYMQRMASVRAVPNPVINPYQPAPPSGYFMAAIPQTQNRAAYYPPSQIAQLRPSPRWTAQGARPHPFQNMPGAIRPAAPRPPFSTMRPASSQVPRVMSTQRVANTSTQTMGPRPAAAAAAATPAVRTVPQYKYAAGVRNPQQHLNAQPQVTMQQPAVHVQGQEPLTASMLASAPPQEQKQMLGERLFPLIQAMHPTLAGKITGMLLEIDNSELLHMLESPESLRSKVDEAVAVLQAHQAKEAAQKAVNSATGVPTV

Results are given in words; binding and its absence hold for the method and conditions named. In cells and extracts the contact can be indirect. Here binding means that the protein was enriched with, or labelled near, the bait; the list need not be complete.

“AP1M1, a subunit of adaptor protein complex-1 (from UniProt Q9BXS5 1-423)”: the binding result is given as “binds”.

As for “RNA helicase DDX3X (from UniProt O00571 1-662)”, the binding entry is “binds”.

As for “RNA helicase DDX21 (from UniProt Q9NR30 1-783)”, the binding result is reported as “binds”.

Turning to “poly-(A)-binding protein PABPC1 (from UniProt P11940 1-636)”, the binding entry was “binds”.

B1: SET and MYND domain-containing protein 3, endogenous (protein, UniProt Q9H7B4 1-428)
chain: MEPLKVEKFATAKRGNGLRAVTPLRPGELLFRSDPLAYTVCKGSRGVVCDRCLLGKEKLMRCSQCRVAKYCSAKCQKKAWPDHKRECKCLKSCKPRYPPDSVRLLGRVVFKLMDGAPSESEKLYSFYDLESNINKLTEDKKEGLRQLVMTFQHFMREEIQDASQLPPAFDLFEAFAKVICNSFTICNAEMQEVGVGLYPSISLLNHSCDPNCSIVFNGPHLLLRAVRDIEVGEELTICYLDMLMTSEERRKQLRDQYCFECDCFRCQTQDKDADMLTGDEQVWKEVQESLKKIEELKAHWKWEQVLAMCQAIISSNSERLPDINIYQLKVLDCAMDACINLGLLEEALFYGTRTMEPYRIFFPGSHPVRGVQVMKVGKLQLHQGMFPQAMKNLRLAFDIMRVTHGREHSLIEDLILLLEECDANIRAS
Take B1: the binding entry is “binds”.

These data come from PMC6758638.
